Consider 1 compound from PubChem BioAssay AID1665 (Sanford-Burnham Center for Chemical Genomics, 2009).

The list shows a part of the results.

This assay can be described thus: modulators of beta-catenin nuclear translocation, primary screen, imaging, HeLa cells, immunofluorescence, high-content (AID 1665). Conditions: measured here: cell count, cytotoxicity flag, at 5 µM. An outline of the steps: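 Signal – beta-catenin immunofluorescence imaging with DAPI · Test system – human HeLa cell line · Dosing – 5 µM primary single dose, 0.1% DMSO, 0.02–20 µM confirmation series · Measure – % activation, nuclear-to-cytoplasmic median beta-catenin signal ratio per cell · Incubation – 24 h compound exposure at 37°C, 5% CO2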
Compound `COc1ccccc1OP(C)(=O)Nc1ccc(C)cc1` (stereo unspecified) displayed a cell count of 938 cells.
